Measurements from article PMC11004023.
These are yes or no findings as the source states them, for the method shown. Binding seen in cells or lysates may run through a third protein. Some entries that bind do so weakly or less than the wild type.

The chains behind the UniProt entries cited, without tags or fusion partners.
UniProt P37231: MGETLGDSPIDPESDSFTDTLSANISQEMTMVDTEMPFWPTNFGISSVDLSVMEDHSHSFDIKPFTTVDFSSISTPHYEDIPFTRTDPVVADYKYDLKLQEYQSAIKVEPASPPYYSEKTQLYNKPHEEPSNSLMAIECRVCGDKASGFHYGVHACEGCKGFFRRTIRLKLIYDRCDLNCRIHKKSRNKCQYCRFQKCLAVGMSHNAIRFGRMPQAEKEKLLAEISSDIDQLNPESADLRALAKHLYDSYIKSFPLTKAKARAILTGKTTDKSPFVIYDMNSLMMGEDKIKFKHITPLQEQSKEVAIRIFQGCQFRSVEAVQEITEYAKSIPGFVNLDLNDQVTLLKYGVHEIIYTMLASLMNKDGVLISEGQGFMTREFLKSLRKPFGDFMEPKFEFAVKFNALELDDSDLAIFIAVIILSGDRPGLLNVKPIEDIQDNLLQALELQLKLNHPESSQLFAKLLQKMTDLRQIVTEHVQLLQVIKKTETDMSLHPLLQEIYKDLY

Molecular target: Peroxisome proliferator-activated receptor gamma (PPARγ) (human (endogenous in HTR-8/SVneo)) (UniProt P37231)
Test: co-IP; total cell proteins in IP cell lysis buffer; anti-PPARγ or rabbit IgG (control) overnight at 4 °C, agarose beads, 4 washes; PPARγ, Nrf2 and SREBP1 detected by western blot

binding: binds
B1: Nrf2 (protein, UniProt Q16236 1-605)
chain: MMDLELPPPGLPSQQDMDLIDILWRQDIDLGVSREVFDFSQRRKEYELEKQKKLEKERQEQLQKEQEKAFFAQLQLDEETGEFLPIQPAQHIQSETSGSANYSQVAHIPKSDALYFDDCMQLLAQTFPFVDDNEVSSATFQSLVPDIPGHIESPVFIATNQAQSPETSVAQVAPVDLDGMQQDIEQVWEELLSIPELQCLNIENDKLVETTMVPSPEAKLTEVDNYHFYSSIPSMEKEVGNCSPHFLNAFEDSFSSILSTEDPNQLTVNSLNSDATVNTDFGDEFYSAFIAEPSISNSMPSPATLSHSLSELLNGPIDVSDLSLCKAFNQNHPESTAEFNDSDSGISLNTSPSVASPEHSVESSSYGDTLLGLSDSEVEELDSAPGSVKQNGPKTPVHSSGDMVQPLSPSQGQSTHVHDAQCENTPEKELPVSPGHRKTPFTKDKHSSRLEAHLTRDELRAKALHIPFPVEKIINLPVVDFNEMMSKEQFNEAQLALIRDIRRRGKNKVAAQNCRKRKLENIVELEQDLDHLKDEKEKLLKEKGENDKSLHLLKKQLSTLYLEVFSMLRDEDGKPYSPSEYSLQQTRDGNVFLVPKSKKPDVKKN
